In patent US20240059676A1, “THYROID HORMONE RECEPTOR b SELECTIVE AGONIST COMPOUND, PHARMACEUTICAL COMPOSITION AND USE THEREOF” (SHANGHAI INSTITUTE OF MATERIA MEDICA, CHINESE ACADEMY OF …, priority 2020, published 2024):
At least one structure is not confirmed: it was looked up by name or label, or the drawing left a doubt. Some compounds share one wording; it may come from a single statement.

The chains behind the UniProt entries cited, without tags or fusion partners. Where a name states a change or a piece, a line headed by the entry shows the natural chain unless it says otherwise.
UniProt P10828: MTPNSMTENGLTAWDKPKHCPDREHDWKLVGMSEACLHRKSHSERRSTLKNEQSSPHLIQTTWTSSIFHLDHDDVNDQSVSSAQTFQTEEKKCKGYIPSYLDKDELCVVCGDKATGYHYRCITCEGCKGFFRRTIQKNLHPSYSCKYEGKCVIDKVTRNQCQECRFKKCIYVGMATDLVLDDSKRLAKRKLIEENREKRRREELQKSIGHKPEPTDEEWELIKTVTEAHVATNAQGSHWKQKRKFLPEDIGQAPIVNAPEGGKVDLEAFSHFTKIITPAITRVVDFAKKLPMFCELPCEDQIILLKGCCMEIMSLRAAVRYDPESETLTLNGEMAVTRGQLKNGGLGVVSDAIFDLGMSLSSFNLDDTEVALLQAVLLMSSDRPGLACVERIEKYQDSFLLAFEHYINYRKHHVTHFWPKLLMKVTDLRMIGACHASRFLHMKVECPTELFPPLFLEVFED

Molecular target: human THRβ (Homo sapiens (Human), UniProt P10828)
Assay: THR reporter gene method, agonistic activity on THRβ (Huh7 cells, PGL4.26-DR4-Luc)
Format: cell-based
Details: THR reporter gene assay, summary in words
Experimental: Huh7 cells were cultured in a DMEM medium supplemented with 10% FBS. The cells were inoculated into a 10 cm cell culture dish, proliferated to about 90% confluency, and co-transfected by using a liposome (Lipofectamine 2000) with human THR^a eukaryotic expression plasmid or human THRβ eukaryotic expression plasmid, as well as reporter gene plasmid PGL4.26-DR4-Luc containing THR response sequence driver. The operation steps were carried out according to the instructions of Lipofectamine 2000. […] After incubation, the culture medium was discarded, and each well was added with 35 μL of serum-free and phenol red-free DMEM and 35 μL of Steady-Glo, shaked for 10 minutes in the dark, and the chemiluminescence value of the sample was detected.
The agonistic activity of the compound was calculated as follows: % effect=(compound−blank control)/(positive control−blank control)×100%. […]
The EC50 values of agonistic activities of compounds on THR^a and THRβ were firstly corrected by the EC50 values of agonistic activities of T3 on THR^a and THRβ in the same experiment, and then the multiple, that is, receptor selectivity were calculated based on the obtained values. […]

For N#Cc1nn(-c2cc(Cl)c(-n3ncc4c3ccc(=O)n4CC3CCCCC3)c(Cl)c2)c(=O)[nH]c1=O [ZB-H-81], the “Activity or selectivity compared with the positive control (MGL-3196)” value was “significantly higher activity or selectivity than the positive control”.
